# Percent effect of library compounds

Amino acid sequences for entries named in this document (tags omitted). Residues count along the entry.
UniProt I6X8D2, whole entry: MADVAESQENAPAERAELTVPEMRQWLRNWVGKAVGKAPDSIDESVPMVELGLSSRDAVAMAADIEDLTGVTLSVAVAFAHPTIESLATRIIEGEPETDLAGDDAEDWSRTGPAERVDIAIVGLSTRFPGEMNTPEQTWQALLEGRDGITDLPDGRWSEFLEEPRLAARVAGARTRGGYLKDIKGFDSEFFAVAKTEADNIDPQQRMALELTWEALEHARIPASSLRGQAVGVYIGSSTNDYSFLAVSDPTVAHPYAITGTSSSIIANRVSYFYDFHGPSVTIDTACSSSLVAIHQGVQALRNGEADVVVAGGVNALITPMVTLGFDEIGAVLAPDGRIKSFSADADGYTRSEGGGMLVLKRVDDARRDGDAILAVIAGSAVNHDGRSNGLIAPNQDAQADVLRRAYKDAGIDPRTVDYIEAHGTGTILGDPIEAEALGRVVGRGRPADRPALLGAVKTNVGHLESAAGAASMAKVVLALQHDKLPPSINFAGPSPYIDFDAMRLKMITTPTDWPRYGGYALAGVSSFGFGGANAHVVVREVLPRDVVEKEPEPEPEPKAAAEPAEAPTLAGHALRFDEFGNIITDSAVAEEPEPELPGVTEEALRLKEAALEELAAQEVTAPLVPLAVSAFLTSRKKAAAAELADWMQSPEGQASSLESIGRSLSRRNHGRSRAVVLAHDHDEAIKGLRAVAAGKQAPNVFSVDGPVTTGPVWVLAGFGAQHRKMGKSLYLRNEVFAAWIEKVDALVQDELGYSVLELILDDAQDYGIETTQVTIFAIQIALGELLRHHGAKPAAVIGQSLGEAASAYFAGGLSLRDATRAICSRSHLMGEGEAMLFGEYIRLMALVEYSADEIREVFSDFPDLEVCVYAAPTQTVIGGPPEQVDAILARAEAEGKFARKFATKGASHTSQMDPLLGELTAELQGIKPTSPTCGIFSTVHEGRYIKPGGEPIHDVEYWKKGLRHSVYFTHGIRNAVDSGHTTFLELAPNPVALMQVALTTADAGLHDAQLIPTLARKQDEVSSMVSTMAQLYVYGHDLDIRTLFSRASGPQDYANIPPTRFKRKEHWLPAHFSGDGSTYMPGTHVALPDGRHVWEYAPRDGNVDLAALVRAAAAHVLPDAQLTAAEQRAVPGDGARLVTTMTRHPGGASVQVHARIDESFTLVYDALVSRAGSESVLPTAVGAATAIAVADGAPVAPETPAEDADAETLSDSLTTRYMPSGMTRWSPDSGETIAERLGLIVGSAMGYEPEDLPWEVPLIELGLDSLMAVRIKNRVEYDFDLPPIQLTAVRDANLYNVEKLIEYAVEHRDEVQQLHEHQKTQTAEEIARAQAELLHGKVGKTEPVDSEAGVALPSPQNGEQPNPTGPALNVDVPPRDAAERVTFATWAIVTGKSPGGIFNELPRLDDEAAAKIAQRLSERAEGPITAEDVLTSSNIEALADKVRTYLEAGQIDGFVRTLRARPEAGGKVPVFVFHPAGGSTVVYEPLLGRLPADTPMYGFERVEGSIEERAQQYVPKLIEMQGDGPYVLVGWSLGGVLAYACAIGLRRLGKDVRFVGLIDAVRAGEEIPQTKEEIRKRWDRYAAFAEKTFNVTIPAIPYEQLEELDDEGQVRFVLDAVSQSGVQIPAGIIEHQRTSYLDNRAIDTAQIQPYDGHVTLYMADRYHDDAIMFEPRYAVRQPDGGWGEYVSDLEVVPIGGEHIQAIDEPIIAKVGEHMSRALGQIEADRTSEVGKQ
UniProt Q8IDJ8, 1-583: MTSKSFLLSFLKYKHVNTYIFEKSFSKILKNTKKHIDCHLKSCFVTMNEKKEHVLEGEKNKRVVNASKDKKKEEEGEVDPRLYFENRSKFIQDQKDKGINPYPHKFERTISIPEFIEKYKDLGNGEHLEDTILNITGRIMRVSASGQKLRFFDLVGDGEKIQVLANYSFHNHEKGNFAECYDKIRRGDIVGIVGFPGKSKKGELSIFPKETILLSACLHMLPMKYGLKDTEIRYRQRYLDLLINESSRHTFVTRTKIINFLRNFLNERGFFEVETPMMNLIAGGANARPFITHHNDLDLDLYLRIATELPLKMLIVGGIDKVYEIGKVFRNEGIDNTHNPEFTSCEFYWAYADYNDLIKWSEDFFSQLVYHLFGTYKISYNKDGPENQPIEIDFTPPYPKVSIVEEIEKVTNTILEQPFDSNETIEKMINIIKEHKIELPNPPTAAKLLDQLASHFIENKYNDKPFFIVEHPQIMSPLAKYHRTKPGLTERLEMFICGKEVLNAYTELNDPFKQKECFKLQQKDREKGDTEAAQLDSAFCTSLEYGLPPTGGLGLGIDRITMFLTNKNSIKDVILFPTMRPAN
UniProt A4I591, 1-473: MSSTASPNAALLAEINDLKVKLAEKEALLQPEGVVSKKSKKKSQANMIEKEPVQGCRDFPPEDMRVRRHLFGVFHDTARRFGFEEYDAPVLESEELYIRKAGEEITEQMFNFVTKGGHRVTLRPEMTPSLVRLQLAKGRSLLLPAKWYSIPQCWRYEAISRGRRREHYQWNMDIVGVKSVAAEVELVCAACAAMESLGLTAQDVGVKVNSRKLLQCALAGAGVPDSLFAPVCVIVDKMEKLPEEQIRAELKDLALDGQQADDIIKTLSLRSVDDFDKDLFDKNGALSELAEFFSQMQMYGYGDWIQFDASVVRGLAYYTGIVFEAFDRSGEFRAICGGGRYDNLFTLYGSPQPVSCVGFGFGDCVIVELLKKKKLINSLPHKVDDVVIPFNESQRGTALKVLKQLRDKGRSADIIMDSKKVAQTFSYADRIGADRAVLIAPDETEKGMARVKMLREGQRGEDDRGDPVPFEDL
UniProt Q4DA54, 1-478: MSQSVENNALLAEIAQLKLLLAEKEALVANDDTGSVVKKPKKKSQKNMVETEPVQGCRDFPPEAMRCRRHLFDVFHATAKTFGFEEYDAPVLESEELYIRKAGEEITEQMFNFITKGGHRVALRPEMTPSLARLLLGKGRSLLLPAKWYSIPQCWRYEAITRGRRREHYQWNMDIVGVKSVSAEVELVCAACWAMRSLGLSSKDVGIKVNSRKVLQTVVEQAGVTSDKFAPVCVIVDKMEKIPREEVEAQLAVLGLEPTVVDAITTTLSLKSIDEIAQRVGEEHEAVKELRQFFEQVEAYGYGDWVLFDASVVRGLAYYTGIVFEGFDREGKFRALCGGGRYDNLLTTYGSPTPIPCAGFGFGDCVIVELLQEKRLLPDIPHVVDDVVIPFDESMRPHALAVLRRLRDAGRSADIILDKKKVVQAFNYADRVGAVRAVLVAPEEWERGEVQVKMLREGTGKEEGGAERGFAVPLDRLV

Values are the deposited “Percent Effect”, in %.
The controls that fix the scale are not given in the record; negative values are as filed.
The compounds are a random part of those screened.

Pks13 thioesterase: 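Polyketide synthase Pks13, Mycobacterium tuberculosis (UniProt I6X8D2). Enzyme assay of the thioesterase domain of polyketide synthase 13; the read-out is not stated. Compounds at 30 µM. The record gives no direction; the compounds picked for IC50 retests had high values, so higher reads as stronger inhibition. About 67,000 compounds were tested under these conditions; 0.46% (about 300) showed 50% or more at least once.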
PfKRS1: 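Lysine-tRNA ligase, Plasmodium falciparum 3D7 (UniProt Q8IDJ8). Enzyme assay of the cytosolic lysyl-tRNA synthetase in 384-well plates, read by luminescence. Concentration: 30 µM. Direction is inferred from only a few compounds that gave an IC50; most scored high, so higher reads as stronger inhibition. About 69,000 compounds were tested under these conditions; 0.071% (about 49) showed 50% or more at least once.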
LiHisRS: 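Histidine-tRNA ligase, Leishmania infantum (UniProt A4I591). Enzyme assay of histidyl-tRNA synthetase; the read-out is not stated. Concentration: 30 µM. The record gives no direction; compounds that gave an IC50 in retests scored well above the rest, so higher reads as stronger inhibition. The assay is labelled LdHisRS but filed under L. infantum. About 69,000 compounds were tested under these conditions; 0.6% (about 410) showed 50% or more at least once.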
TcHisRS: 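Histidine-tRNA ligase, Trypanosoma cruzi CL Brener (UniProt Q4DA54). Enzyme assay of histidyl-tRNA synthetase; the read-out is not stated. Compounds at 30 µM. Direction is inferred from retests: higher values go with stronger inhibition. About 69,000 compounds were tested under these conditions; 0.045% (about 31) showed 50% or more at least once.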

* CS(=O)(=O)N1CCC[C@H]1c1ncnn1-c1ccc2c(c1)OCO2 | Pks13 thioesterase: -14.72%; PfKRS1: 5.253%; LiHisRS: 19.18%; TcHisRS: -1.093%
* COc1cccc(SCC(=O)N2CCC(N3CCCC3=O)CC2)c1 | Pks13 thioesterase: -6.077%; PfKRS1: 4.686%; LiHisRS: 0%; TcHisRS: 3.704%
* Cc1nc(CN2CC[C@@H]3[C@@H](CCC(=O)N3CCc3c[nH]cn3)C2)co1 | Pks13 thioesterase: -18.22%; PfKRS1: 1.425%; LiHisRS: 8.065%; TcHisRS: 6.122%
* CC(C)NS(=O)(=O)c1cc(C(=O)O)cc(-c2ccc3c(c2)OCCO3)c1 | Pks13 thioesterase: -31.06%; PfKRS1: 7.83%; LiHisRS: 3.125%; TcHisRS: -1.117%
* Cc1nc(C)n(CC2CCCN2Cc2coc(-c3cccs3)n2)n1 (centres unmarked) | Pks13 thioesterase: -11.05%; PfKRS1: 1.378%; LiHisRS: 24.69%; TcHisRS: 14.11%
* COCCN(Cc1ccccc1Cl)C(=O)c1c(C)cc(C)[nH]c1=O | Pks13 thioesterase: -11.51%; PfKRS1: 1.265%; LiHisRS: 9.859%; TcHisRS: -2.762%
* Cc1ccc(C)c(N2CCN(CC3(O)CCNC3)CC2)c1 (centres unmarked) | Pks13 thioesterase: -29.15%; PfKRS1: 1.718%; LiHisRS: 11.84%; TcHisRS: 3.448%
* COc1cccc(-c2noc(-c3ccc(NCC4CC4)nc3)n2)c1OC | Pks13 thioesterase: 36.11%; PfKRS1: 0.6007%; LiHisRS: 26.21%; TcHisRS: 7.054%
* COc1cccc2c1OCC(Cc1cnc(N)c(C)c1)C2 (centres unmarked) | Pks13 thioesterase: -27.66%; PfKRS1: 9.231%; LiHisRS: 9.375%; TcHisRS: 2.235%
* CN1CCc2nc(C3CCCCN3Cc3ccccc3Cl)ncc2C1 (centres unmarked) | Pks13 thioesterase: 2.301%; PfKRS1: 0.6161%; LiHisRS: 30%; TcHisRS: 24.72%
* CCn1ccnc1CN1CCCN(CC2CC2)C(C(C)C)C1 (centres unmarked) | Pks13 thioesterase: -41.95%; PfKRS1: 5.012%; LiHisRS: 20%; TcHisRS: 7.143%
* CN1CCN(C(=O)Cc2cccc(F)c2)Cc2cccnc21 | Pks13 thioesterase: -6.674%; PfKRS1: 3.327%; LiHisRS: 6.604%; TcHisRS: 0.8368%
* O=S1(=O)COCCN1Cc1ccc(F)c(F)c1 | Pks13 thioesterase: 1.826%; PfKRS1: 4.454%; LiHisRS: 15.73%; TcHisRS: 4.523%
* COc1ccnc(N2CCc3ccc(OC(F)F)cc3C2)n1 | Pks13 thioesterase: -25.24%; PfKRS1: 6.618%; LiHisRS: 16%; TcHisRS: 14.67%
* Cc1nc2c(c(N3CCCOCC3)n1)CCN(c1nccs1)CC2 | Pks13 thioesterase: -0.3224%; PfKRS1: 4.526%; LiHisRS: 22.35%; TcHisRS: 18.09%
* CC[C@H]1CN2CC[C@H]1C[C@@H]2CNCc1ccc2c(c1)OCO2 | Pks13 thioesterase: -36.72%; PfKRS1: 9.724%; LiHisRS: 27.78%; TcHisRS: 12.87%
* Cc1cc(C)cc(NC(=O)CN2CCCC(n3cncn3)C2)c1 (centres unmarked) | Pks13 thioesterase: -14.17%; PfKRS1: 2.043%; LiHisRS: 15.38%; TcHisRS: -1.149%
* Cc1nc(C)c(CNC(=O)N2CCc3ccccc3C2CO)s1 (centres unmarked) | Pks13 thioesterase: 1.417%; PfKRS1: 3.527%; LiHisRS: -2.703%; TcHisRS: 3.333%
* Cc1cnc2n(c1=O)C(CC(=O)NCc1cccnc1)CS2 (centres unmarked) | Pks13 thioesterase: 1.887%; PfKRS1: 1.058%; LiHisRS: 17.98%; TcHisRS: 11.56%
* CCOCC1CN(C(=O)c2cnccn2)Cc2cnn(CC3CC3)c21 (centres unmarked) | Pks13 thioesterase: -17.37%; PfKRS1: 4.398%; LiHisRS: 19.27%; TcHisRS: 10.92%
* Cn1c(CO)nnc1CC1CCN(Cc2ccc(C#N)cc2)CC1 | Pks13 thioesterase: -8.08%; PfKRS1: -2.062%; LiHisRS: 24.24%; TcHisRS: -4.348%
* O=C(Nc1ccc2occc2c1)N1CCCC(O)(CO)CC1 (centres unmarked) | Pks13 thioesterase: -0.6851%; PfKRS1: 6.305%; LiHisRS: 16.39%; TcHisRS: 6.061%

The first 2 entries again:

- CS(=O)(=O)N1CCC[C@H]1c1ncnn1-c1ccc2c(c1)OCO2 | Pks13 thioesterase: -14.72%; PfKRS1: 5.253%; LiHisRS: 19.18%; TcHisRS: -1.093%
- COc1cccc(SCC(=O)N2CCC(N3CCCC3=O)CC2)c1 | Pks13 thioesterase: -6.077%; PfKRS1: 4.686%; LiHisRS: 0%; TcHisRS: 3.704%

Source: ChEMBL document CHEMBL3988442, “University of Dundee, Small-Polar-MMV Screening Library” (2021).